This note sets out measurements from US20160152947A1 (BOARD OF REGENTS OF THE UNIVERSITY OF OKLAHOMA, published 2016).

By UniProt entry, the sequences of proteins in these tests, tags left out. Where a name states a change or a piece, a line headed by the entry shows the natural chain unless it says otherwise. Chains listed by the source or under a name are the forms on record and can include a tag or linker. Residues count along the entry.
MBP-Th-LGR4 LRR1-14 (MBP-Th-hLGR4.23-383-H6) (Q9BXB1, form named): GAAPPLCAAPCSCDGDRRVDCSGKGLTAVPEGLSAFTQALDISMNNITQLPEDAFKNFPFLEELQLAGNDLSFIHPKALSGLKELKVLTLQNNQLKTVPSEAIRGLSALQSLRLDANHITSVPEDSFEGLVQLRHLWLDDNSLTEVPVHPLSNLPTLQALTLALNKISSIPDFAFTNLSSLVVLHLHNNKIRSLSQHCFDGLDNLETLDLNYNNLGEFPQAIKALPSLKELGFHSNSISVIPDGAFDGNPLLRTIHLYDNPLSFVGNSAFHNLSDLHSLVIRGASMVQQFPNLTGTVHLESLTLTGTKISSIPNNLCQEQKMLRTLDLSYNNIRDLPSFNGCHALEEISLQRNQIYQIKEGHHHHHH
Biotin-ZNRF3 ECD (Avi tag-ZNRF3.56-216-H6, MBP removed by thrombin) (Q9ULT6, form named): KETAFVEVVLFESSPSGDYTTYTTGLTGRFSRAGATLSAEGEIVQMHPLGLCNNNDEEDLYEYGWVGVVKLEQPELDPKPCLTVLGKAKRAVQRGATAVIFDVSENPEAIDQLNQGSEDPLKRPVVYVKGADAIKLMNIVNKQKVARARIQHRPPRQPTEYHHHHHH
UniProt Q2I0M5, residues 20-234: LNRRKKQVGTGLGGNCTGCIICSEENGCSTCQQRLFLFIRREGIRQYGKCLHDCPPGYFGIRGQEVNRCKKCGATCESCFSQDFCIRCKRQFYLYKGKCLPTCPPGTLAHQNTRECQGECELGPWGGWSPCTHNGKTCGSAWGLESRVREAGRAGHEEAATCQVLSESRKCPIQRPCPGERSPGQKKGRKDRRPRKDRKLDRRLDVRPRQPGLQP

These are yes or no findings as the source states them, for the method shown. Some entries that bind do so weakly or less than the wild type. For some assays here: Where a sequence is shown, tags or fusion partners need not be part of it.

The target in assay [1] is MBP-Th-LGR4 LRR1-14 (MBP-Th-hLGR4.23-383-H6) (human) (UniProt Q9BXB1). The experiment in a line: TR-FRET competition binding to LGR4 ECD. In general terms: TR-FRET usually uses a lanthanide donor and a delayed reading to cut background.
Assay [2] deals with Biotin-ZNRF3 ECD (Avi tag-ZNRF3.56-216-H6, MBP removed by thrombin) (human) (UniProt Q9ULT6). Nature of the assay: AlphaLISA luminescent proximity assay, saturation format, 3 nM Biotin-ZNRF3 ECD. On the technique in general: Bead proximity is the source of the signal in Alpha formats.
For assay [3] the target is unchanged. The experiment in a line: summary of the ZNRF3 ECD binding assays.

For “commercial full-length RSPO4 produced in CHO cells (R&D Systems, catalog number 4575-RS-025/CF) (from UniProt Q2I0M5 20-234) (ligand)”, the binding result in assay [1] is “binds”.

B1: MBP-Th-RSPO3 Fu1-Fu2-H6 (MBP-Th-RSPO3.22-146-H6) (ligand)
chain: QNASRGRRQRRMHPNVSQGCQGGCATCSDYNGCLSCKPRLFFALERIGMKQIGVCLSSCPSGYYGTRYPDINKCTKCKADCDTCFNKNFCTKCKSGFYLHLGKCLDNCPEGLEANNHTMECVSIVHHHHHH
notes: Produced in E. coli; also called pAP355; not shown: thrombin cut site (Th) linker
Regarding B1, the binding result in assay [2] and in assay [3] was “binds” throughout.

B2: MBP-Th-RSPO1 Fu1-Fu2-H6 (ligand)
chain: SRGIKGKRQRRISAEGSQACAKGCELCSEVNGCLKCSPKLFILLERNDIRQVGVCLPSCPPGYFDARNPDMNKCIKCKIEHCEACFSHNFCTKCKEGLYLHKGRCYPACPEGSSAANGTMECSSPHHHHHH
notes: Produced in E. coli; also called MBP-Th-hRSPO1 Fu1-Fu2-H6; not shown: thrombin cut site (Th) linker
Regarding B2, the binding result in assay [2] and in assay [3] was “binds” in each case.
